These results are taken from the supplement of paper PMC3682954.

Each structure is given as a SMILES string. Where a name gives a salt, the structure may show the parent alone. ± gives the standard deviation of the averaged measurements. This is one part of the list. Single values are uncertain, as repeats are few or missing.

The subject of the test is RAW 264.7. As to the kind of experiment: cell viability (MTT) relative to vehicle control; higher = more viable cells. To be noted: stimulus: HMGB1 5 ug/ml, 18 h.
[1] abbreviates: compound concentration: 1 ug/ml.

Consider `CCCCCC(O)CCCC(=O)O` (stereo not given) [5-hydroxydecanoic acid sodium], for which the cell viability (compound concentration: 3 uM) was found to be 106%.
In the case of `CC[C@H](c1ccc(O)cc1)[C@@H](CC)c1ccc(O)cc1`, the cell viability (compound concentration: 3 uM) was 110%.
Consider `CC[C@H](c1ccc(O)cc1)[C@@H](CC)c1ccc(O)cc1` [Hexestrol], for which, where the note is “compound concentration: 3 uM”, the cell viability is 108 ± 5.2%.
Turning to `Cc1c(Nc2ncccc2C(=O)O)cccc1C(F)(F)F` [Flunixin meglumine], where the note is “compound concentration: 3 uM”, the cell viability turned out to be 126%.
For `Cc1c(Nc2ncccc2C(=O)O)cccc1C(F)(F)F`, the cell viability (compound concentration: 3 uM) came to 102%.
Regarding `COc1cc(N)c(Cl)cc1C(=O)OCCN1CCCCC1`, the cell viability (compound concentration: 3 uM) was 105%.
For the compound `Cc1cc(=O)oc2cc(OC3OC(C(=O)O)C(O)C(O)C3O)ccc12` [4-Methylumbelliferyl-beta-D-glucuronide trihydrate], the cell viability under setting [1] came out at 103%.
`CN(C(=O)CCCOc1ccc2[nH]c(=O)ccc2c1)C1CCCCC1` [Cilostamide]: under “compound concentration: 3 uM”, the cell viability amounted to 103.3 ± 0.59%.
Turning to `NNC(=O)c1ccncc1`, the cell viability (compound concentration: 3 uM) was found to be 106%.
Regarding `NNC(=O)c1ccncc1` [Isoniazid], the cell viability (compound concentration: 3 uM) stood at 110.9 ± 0.79%.
For `CCC(=O)OCC(=O)[C@@]1(OC(=O)CC)[C@@H](C)C[C@H]2[C@@H]3CCC4=CC(=O)C=C[C@]4(C)[C@@]3(F)[C@@H](O)C[C@@]21C`, the cell viability (compound concentration: 3 uM) worked out at 112%.
Regarding `CC1(C)O[C@@H]2C[C@H]3[C@@H]4C[C@H](F)C5=CC(=O)CC[C@]5(C)[C@H]4[C@@H](O)C[C@]3(C)[C@]2(C(=O)CO)O1` [Flurandrenolide], under “compound concentration: 3 uM”, the cell viability came to 107%.
Regarding `CC1(C)O[C@@H]2C[C@H]3[C@@H]4C[C@H](F)C5=CC(=O)CC[C@]5(C)[C@H]4[C@@H](O)C[C@]3(C)[C@]2(C(=O)CO)O1`, the cell viability (compound concentration: 3 uM) was determined as 116%.
As for `N[C@@H](COP(=O)(O)O)C(=O)O` [O-Phospho-L-serine], for the setting “compound concentration: 3 uM”, the cell viability was 102%.
In the case of `Cc1cccc(N(C)C(=S)Oc2ccc3ccccc3c2)c1` [Tolnaftate], the cell viability (compound concentration: 3 uM) is 89.6%.
Still for that read-out and setting: then `Cc1cccc(N(C)C(=S)Oc2ccc3ccccc3c2)c1`, with 119%.
Take `COc1cc(C(=O)OC2CC3CCC2(C)C3(C)C)ccc1O` (stereo not given): the cell viability under setting [1] came out at 101%.
Take `O=c1[nH]c(=O)n([C@H]2C[C@H](O)[C@@H](CO)O2)cc1I` [Idoxuridine]: under “compound concentration: 3 uM”, the cell viability is 94.3 ± 7.5%.
In the case of `Cc1cccc(-c2cc(=O)c3cc(Br)ccc3o2)c1` [6-Bromo-3'-methylflavone], the cell viability under setting [1] came out at 102%.
In the case of `CCCCc1oc2ccccc2c1C(=O)c1cc(I)c(OCCN(CC)CC)c(I)c1`, the cell viability (compound concentration: 3 uM) came to 97.5 ± 4.3%.
Same read-out and setting: for `CCCCc1oc2ccccc2c1C(=O)c1cc(I)c(OCCN(CC)CC)c(I)c1` [Amiodarone] the value was 112%.
As to `CCCCc1oc2ccccc2c1C(=O)c1cc(I)c(OCCN(CC)CC)c(I)c1` [Amiodarone hydrochloride], the cell viability (compound concentration: 3 uM) was determined as 119 ± 19%.
Take `O=C(O)c1cccnc1` [Niacin]: the cell viability (compound concentration: 3 uM) stood at 112%.
With `O=C(O)c1cccnc1`, the cell viability (compound concentration: 3 uM) turned out to be 108%.
Same read-out and setting: then `O=C(O)c1cc2cc(F)ccc2[nH]1` [5-Fluoroindole-2-carboxylic acid], with 99.2%; and `CCN1CCCC1CNC(=O)c1cc(S(N)(=O)=O)ccc1OC` (stereo not given), with 104%; and `CCN1CCCC1CNC(=O)c1cc(S(N)(=O)=O)ccc1OC` (stereo not given) [Sulpiride], with 88.1%.
Consider `CC1(C)OC2[C@@H](O1)[C@H](n1cnc3c(N)ncnc31)O[C@@H]2CO` (stereo not given in full) [2',3'-O-Isopropylideneadenosine], for which the cell viability under setting [1] came to 92.7%.
Consider `CC12CC3CC(C)(C1)CC(N)(C3)C2` [Memantine hydrochloride], for which the cell viability (compound concentration: 3 uM) was 118%.
Consider `CC12CC3CC(C)(C1)CC(N)(C3)C2` [Memantine], for which the cell viability (compound concentration: 3 uM) was 99.5%.
Take `CC12CC3CC(C)(C1)CC(N)(C3)C2` [Memantine Hydrochloride]: for the setting “compound concentration: 3 uM”, the cell viability amounted to 96.8%.
Take `CC12CC3CC(C)(C1)CC(N)(C3)C2`: for the setting “compound concentration: 3 uM”, the cell viability is 102 ± 14%.
Consider `N[C@@H](Cc1cnc[nH]1)C(=O)Nc1ccc2ccccc2c1` [L-Histidine beta-naphthylamide], for which, under setting [1], the cell viability was found to be 97.5%.
Turning to `CCOc1ccc(Cc2nccc3cc(OCC)c(OCC)cc23)cc1OCC` [Ethaverine hydrochloride], the cell viability (compound concentration: 3 uM) is 100%.
The same measure, in the same setting: for `CCOc1ccc(Cc2nccc3cc(OCC)c(OCC)cc23)cc1OCC` the value was 109%; for `O=C(Nc1ccc([N+](=O)[O-])cc1Cl)c1cc(Cl)ccc1O`, 51.7 ± 22%; for `O=C(Nc1ccc([N+](=O)[O-])cc1Cl)c1cc(Cl)ccc1O` [Niclosamide], 48.6 ± 14%.
On to `C#C[C@]1(O)CC[C@H]2[C@@H]3CCC4=Cc5oncc5C[C@]4(C)[C@H]3CC[C@@]21C` [Danazol], for which the cell viability (compound concentration: 3 uM) came out at 101 ± 4.2%.
On the same count and under the same terms, then `C#C[C@]1(O)CC[C@H]2[C@@H]3CCC4=Cc5oncc5C[C@]4(C)[C@H]3CC[C@@]21C`, with 98.1%; and `Nc1ccc(S(=O)(=O)O)cc1.Nc1ccc(S(=O)(=O)O)cc1.[Zn]`, with 98.4%; and `COc1ccc(-c2cc(=O)c3c(OC)c(OC)c(OC)c(OC)c3o2)cc1OC`, with 121%.
Regarding `COc1ccc(-c2cc(=O)c3c(OC)c(OC)c(OC)c(OC)c3o2)cc1OC` [Nobiletin], the cell viability (compound concentration: 3 uM) was determined as 87.7%.
Consider `CN1CCCN=C1/C=C/c1cccs1`, for which the cell viability (compound concentration: 3 uM) is 96.4%.
On the same count and under the same terms, then `CN1CCCN=C1/C=C/c1cccs1` [Pyrantel Pamoate], with 80.9%.
Regarding `CN1CCCN=C1/C=C/c1cccs1` [Pyrantel tartrate], where the note is “compound concentration: 3 uM”, the cell viability was 110%.
Still for that read-out and setting: then `CCC[C@@H]1C[C@@H](C(=O)N[C@@H]([C@H]2O[C@H](SC)[C@H](O)[C@@H](O)[C@H]2O)[C@@H](C)O)N(C)C1` [Lincomycin hydrochloride], with 101%; and `CCC[C@@H]1C[C@@H](C(=O)N[C@@H]([C@H]2O[C@H](SC)[C@H](O)[C@@H](O)[C@H]2O)[C@@H](C)O)N(C)C1` [Lincomycin], with 111%; and `CCC[C@@H]1C[C@@H](C(=O)N[C@@H]([C@H]2O[C@H](SC)[C@H](O)[C@@H](O)[C@H]2O)[C@@H](C)O)N(C)C1`, with 104%.
Turning to `CCOC1O[C@H]([C@@H](COCc2ccccc2)OCc2ccccc2)[C@H](OCc2ccccc2)[C@H]1O` (stereo not given in full) [Tribenoside], the cell viability (compound concentration: 3 uM) was determined as 104%.
On to `c1cc(CN2CCCCC2)cc(OCCCNc2nc3ccccc3s2)c1`, for which, for the setting “compound concentration: 3 uM”, the cell viability was 108%.
For the compound `CNCC(O)c1ccc(O)c(O)c1` (stereo not given) [Racepinephrine HCl], the cell viability (compound concentration: 3 uM) amounted to 113%.
On the same count and under the same terms, for `CCOC(=O)[C@@H](C)Oc1cccc2c(=O)n(CC(=O)Nc3ccc4c(c3)OCCO4)ccc12` the value was 94.8%; for `O=C(O)C1=C(CSc2nnnn2CS(=O)(=O)O)CS[C@@H]2[C@H](NC(=O)[C@H](O)c3ccccc3)C(=O)N12`, 104%; for `CCCCCCOc1ccccc1C(N)=O`, 113%.
Still for that read-out and setting: then `c1ccc2c(c1)CC(N1CCN(c3cccc4c3OCCO4)CC1)C2`, with 117%.
For `Cc1cc2c(C(C)C)c(O)c(O)c3c2c(c1-c1c(C)cc2c(C(C)C)c(O)c(O)c4c2c1OC4N)OC3N` (stereo not given), the cell viability under setting [1] is 121%.
As to `NC[C@H](O)c1ccc(O)c(O)c1`, the cell viability (compound concentration: 3 uM) stood at 101%.
Turning to `CCN(CC)CCNC(=O)c1ccc(N)cc1`, the cell viability (compound concentration: 3 uM) was determined as 98.9%.
With `CCN(CC)CCNC(=O)c1ccc(N)cc1` [Procainamide], the cell viability (compound concentration: 3 uM) amounted to 114%.
Consider `CCN(CC)CCNC(=O)c1ccc(N)cc1` [Procainamide hydrochloride], for which the cell viability (compound concentration: 3 uM) was determined as 96.5 ± 7.1%.
For `CC(=O)Nc1c(I)c(C(=O)N[C@H]2C(O)O[C@H](CO)[C@@H](O)[C@@H]2O)c(I)c(N(C)C(C)=O)c1I` (stereo not given in full) [Metrizamide], where the note is “compound concentration: 3 uM”, the cell viability worked out at 114%.
In the case of `CN[C@H]1CC[C@@H](c2ccc(Cl)c(Cl)c2)c2ccccc21` [Sertraline hydrochloride], the cell viability (compound concentration: 3 uM) was 95.7%.
For the compound `CN[C@H]1CC[C@@H](c2ccc(Cl)c(Cl)c2)c2ccccc21` [Sertraline], for the setting “compound concentration: 3 uM”, the cell viability is 82 ± 14%.
Regarding `CN[C@H]1CC[C@@H](c2ccc(Cl)c(Cl)c2)c2ccccc21`, the cell viability (compound concentration: 3 uM) amounted to 94.1%.
For the compound `CCC(C)(C)N=C(NC#N)Nc1cccnc1`, the cell viability (compound concentration: 3 uM) came to 101%.
Same read-out and setting: for `C[C@@H]1CCC[C@H](C)N1NC(=O)c1ccc(Cl)c(S(N)(=O)=O)c1` [Clopamide] the value was 98.7 ± 12%.
Consider `CC[C@H]1OC(=O)[C@H](C)[C@@H](O[C@H]2C[C@@](C)(OC)[C@@H](O)[C@H](C)O2)[C@H](C)[C@@H](O[C@@H]2O[C@H](C)C[C@H](N(C)C)[C@H]2O)[C@](C)(O)C[C@@H](C)CN(C)[C@H](C)[C@@H](O)[C@]1(C)O`, for which the cell viability (compound concentration: 3 uM) came to 99.9%.
`CC[C@H]1OC(=O)[C@H](C)[C@@H](O[C@H]2C[C@@](C)(OC)[C@@H](O)[C@H](C)O2)[C@H](C)[C@@H](O[C@@H]2O[C@H](C)C[C@H](N(C)C)[C@H]2O)[C@](C)(O)C[C@@H](C)CN(C)[C@H](C)[C@@H](O)[C@]1(C)O` [Azithromycin]: the cell viability (compound concentration: 3 uM) stood at 104 ± 6.9%.
For `CC(C)[N+]1(C)[C@@H]2CC[C@H]1C[C@@H](OC(=O)C(CO)c1ccccc1)C2` (stereo not given in full) [Ipratropium bromide], under “compound concentration: 3 uM”, the cell viability is 102%.
Consider `CC(C)[N+]1(C)[C@@H]2CC[C@H]1C[C@@H](OC(=O)C(CO)c1ccccc1)C2` (stereo not given in full) [Ipratropium], for which, where the note is “compound concentration: 3 uM”, the cell viability came to 99.4%.
Turning to `CC(C)[N+]1(C)[C@@H]2CC[C@H]1C[C@@H](OC(=O)C(CO)c1ccccc1)C2` (stereo not given in full), the cell viability (compound concentration: 3 uM) came out at 106%.
Turning to `COc1cc2cc(Oc3ccc4ccc(=O)oc4c3)c(=O)oc2cc1OC(C)=O` [Daphnoretine Acetate], the cell viability under setting [1] came out at 110%.
With `O=C1c2ccccc2C(=O)c2c(O)c(O)cc(O)c21` [Purpurin], under setting [1], the cell viability is 110%.
Turning to `Cc1ccc(-c2cc(C(F)(F)F)nn2-c2ccc(S(N)(=O)=O)cc2)cc1`, where the note is “compound concentration: 3 uM”, the cell viability came out at 98.1%.
On to `Cc1ccc(-c2cc(C(F)(F)F)nn2-c2ccc(S(N)(=O)=O)cc2)cc1` [Celecoxib], for which the cell viability (compound concentration: 3 uM) is 98.8 ± 4.9%.
Still for that read-out and setting: then `Nc1ccc(S(=O)(=O)Nc2nccs2)cc1` [Sulfathiazole], with 96.1%; and `Nc1ccc(S(=O)(=O)Nc2nccs2)cc1`, with 96.4%.
For `CC(C)[C@H]1CC[C@H](C)C[C@@H]1O` [(1S,2R,5S)-(+)-Menthol], the cell viability under setting [1] amounted to 90%.
In the case of `CC(CNC1CCCCC1)OC(=O)c1ccccc1` (stereo not given) [Hexylcaine hydrochloride], under “compound concentration: 3 uM”, the cell viability stood at 127%.
As to `Cc1cc2c(C(C)C)c(O)c(O)c(/C=N/Nc3cccc(Cl)n3)c2c(O)c1-c1c(C)cc2c(C(C)C)c(O)c(O)c(/C=N/Nc3cccc(Cl)n3)c2c1O`, under setting [1], the cell viability was 109%.
Regarding `COc1cc2ccc(=O)oc2c(O)c1O` [Fraxetin], under setting [1], the cell viability amounted to 89.7%.
Consider `CO/N=C(\C(=O)N[C@@H]1C(=O)N2C(C(=O)O)=C(COC(C)=O)CS[C@H]12)c1csc(N)n1` [Cefotaxime Acid], for which the cell viability (compound concentration: 3 uM) is 93%.
On the same count and under the same terms, for `CO/N=C(\C(=O)N[C@@H]1C(=O)N2C(C(=O)O)=C(COC(C)=O)CS[C@H]12)c1csc(N)n1` [Cefotaxime sodium salt] the value was 75.5%; for `CO/N=C(\C(=O)N[C@@H]1C(=O)N2C(C(=O)O)=C(COC(C)=O)CS[C@H]12)c1csc(N)n1` [Cefotaxime sodium], 103%; for `CO/N=C(\C(=O)N[C@@H]1C(=O)N2C(C(=O)O)=C(COC(C)=O)CS[C@H]12)c1csc(N)n1`, 106%.

For orientation: cell viability means a read-out of living cells in per cent, often relative to untreated cells.
